Reference: the supplement of paper PMC6411743
± gives the standard deviation of the averaged measurements. This is a selection; strong and weak results do not stand in their true shares.

Sequences of proteins named here, by UniProt entry; tags and fusion partners are left off. A change or cut given only in a name is not applied to a line headed by its entry.
UniProt Q8NBT2: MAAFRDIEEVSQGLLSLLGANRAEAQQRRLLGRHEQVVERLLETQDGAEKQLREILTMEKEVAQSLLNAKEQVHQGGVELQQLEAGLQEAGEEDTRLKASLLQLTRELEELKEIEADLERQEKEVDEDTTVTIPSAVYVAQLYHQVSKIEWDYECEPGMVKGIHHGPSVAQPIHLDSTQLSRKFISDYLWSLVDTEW
UniProt O95476: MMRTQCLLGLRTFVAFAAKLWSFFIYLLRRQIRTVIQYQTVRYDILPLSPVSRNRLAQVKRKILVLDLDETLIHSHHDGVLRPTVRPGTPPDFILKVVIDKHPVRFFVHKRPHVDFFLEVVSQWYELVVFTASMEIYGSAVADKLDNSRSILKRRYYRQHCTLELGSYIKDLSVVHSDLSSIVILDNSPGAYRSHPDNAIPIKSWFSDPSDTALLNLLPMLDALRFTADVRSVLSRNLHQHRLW
UniProt O14893: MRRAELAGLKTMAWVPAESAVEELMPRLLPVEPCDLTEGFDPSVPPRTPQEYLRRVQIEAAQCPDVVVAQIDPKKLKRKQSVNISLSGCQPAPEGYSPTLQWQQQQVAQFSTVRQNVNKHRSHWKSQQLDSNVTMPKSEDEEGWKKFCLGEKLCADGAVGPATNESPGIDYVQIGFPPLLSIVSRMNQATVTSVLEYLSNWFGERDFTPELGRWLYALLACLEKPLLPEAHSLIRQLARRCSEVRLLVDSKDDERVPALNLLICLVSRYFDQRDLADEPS
UniProt O43291: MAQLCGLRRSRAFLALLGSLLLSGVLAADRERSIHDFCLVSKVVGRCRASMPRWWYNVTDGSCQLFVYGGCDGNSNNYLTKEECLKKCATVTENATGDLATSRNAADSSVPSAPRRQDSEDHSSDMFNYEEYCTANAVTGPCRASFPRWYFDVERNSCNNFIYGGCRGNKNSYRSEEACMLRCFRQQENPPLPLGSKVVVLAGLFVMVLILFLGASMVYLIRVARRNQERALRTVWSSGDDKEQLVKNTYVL
UniProt Q9H079: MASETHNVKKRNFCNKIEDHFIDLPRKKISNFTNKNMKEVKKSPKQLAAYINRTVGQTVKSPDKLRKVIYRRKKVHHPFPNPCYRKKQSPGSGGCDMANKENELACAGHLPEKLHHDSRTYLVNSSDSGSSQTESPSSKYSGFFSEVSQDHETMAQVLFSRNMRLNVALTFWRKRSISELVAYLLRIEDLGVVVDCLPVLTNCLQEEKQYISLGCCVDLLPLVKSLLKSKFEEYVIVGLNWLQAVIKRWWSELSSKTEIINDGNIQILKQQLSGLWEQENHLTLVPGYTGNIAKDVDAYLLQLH
UniProt O95785: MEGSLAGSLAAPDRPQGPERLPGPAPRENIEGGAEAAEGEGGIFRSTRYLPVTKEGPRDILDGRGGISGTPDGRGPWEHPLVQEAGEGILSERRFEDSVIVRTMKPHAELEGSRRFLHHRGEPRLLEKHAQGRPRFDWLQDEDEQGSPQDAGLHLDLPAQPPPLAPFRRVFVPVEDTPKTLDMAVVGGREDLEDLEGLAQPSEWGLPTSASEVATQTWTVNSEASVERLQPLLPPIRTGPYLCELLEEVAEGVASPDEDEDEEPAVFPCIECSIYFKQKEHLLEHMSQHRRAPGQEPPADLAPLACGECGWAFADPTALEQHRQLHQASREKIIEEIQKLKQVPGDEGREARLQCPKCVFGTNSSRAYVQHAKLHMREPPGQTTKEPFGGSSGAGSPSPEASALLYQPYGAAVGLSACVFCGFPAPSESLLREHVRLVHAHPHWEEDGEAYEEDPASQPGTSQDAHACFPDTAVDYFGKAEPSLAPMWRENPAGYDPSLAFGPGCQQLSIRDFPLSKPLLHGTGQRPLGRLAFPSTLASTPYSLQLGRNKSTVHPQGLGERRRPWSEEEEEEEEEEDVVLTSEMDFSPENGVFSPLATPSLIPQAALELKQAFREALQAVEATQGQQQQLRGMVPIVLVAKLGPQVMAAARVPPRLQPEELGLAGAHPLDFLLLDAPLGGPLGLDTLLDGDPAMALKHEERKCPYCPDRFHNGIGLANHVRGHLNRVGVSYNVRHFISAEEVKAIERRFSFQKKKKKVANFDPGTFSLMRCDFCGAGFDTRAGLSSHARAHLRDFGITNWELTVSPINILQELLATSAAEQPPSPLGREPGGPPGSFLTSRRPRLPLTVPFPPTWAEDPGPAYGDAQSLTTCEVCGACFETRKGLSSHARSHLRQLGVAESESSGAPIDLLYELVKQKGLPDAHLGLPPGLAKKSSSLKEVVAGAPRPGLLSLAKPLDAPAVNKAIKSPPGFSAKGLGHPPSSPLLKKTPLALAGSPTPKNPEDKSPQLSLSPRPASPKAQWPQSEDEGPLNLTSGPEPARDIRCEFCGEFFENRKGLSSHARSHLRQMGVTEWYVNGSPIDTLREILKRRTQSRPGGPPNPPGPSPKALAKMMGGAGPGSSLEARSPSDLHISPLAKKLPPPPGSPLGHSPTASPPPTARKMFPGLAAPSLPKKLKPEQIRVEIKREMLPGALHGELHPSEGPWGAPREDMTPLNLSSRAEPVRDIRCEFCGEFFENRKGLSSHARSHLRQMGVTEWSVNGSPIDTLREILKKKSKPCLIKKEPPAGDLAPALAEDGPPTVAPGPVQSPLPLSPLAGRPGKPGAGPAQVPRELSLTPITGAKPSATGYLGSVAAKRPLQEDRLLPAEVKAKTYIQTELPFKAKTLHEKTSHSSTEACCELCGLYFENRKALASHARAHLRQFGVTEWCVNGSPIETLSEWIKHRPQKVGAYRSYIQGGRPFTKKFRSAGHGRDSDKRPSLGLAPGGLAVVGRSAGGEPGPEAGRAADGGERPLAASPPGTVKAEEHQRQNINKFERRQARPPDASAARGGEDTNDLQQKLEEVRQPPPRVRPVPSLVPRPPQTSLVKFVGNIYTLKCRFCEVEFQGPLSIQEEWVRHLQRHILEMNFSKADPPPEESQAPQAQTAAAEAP
UniProt Q15032: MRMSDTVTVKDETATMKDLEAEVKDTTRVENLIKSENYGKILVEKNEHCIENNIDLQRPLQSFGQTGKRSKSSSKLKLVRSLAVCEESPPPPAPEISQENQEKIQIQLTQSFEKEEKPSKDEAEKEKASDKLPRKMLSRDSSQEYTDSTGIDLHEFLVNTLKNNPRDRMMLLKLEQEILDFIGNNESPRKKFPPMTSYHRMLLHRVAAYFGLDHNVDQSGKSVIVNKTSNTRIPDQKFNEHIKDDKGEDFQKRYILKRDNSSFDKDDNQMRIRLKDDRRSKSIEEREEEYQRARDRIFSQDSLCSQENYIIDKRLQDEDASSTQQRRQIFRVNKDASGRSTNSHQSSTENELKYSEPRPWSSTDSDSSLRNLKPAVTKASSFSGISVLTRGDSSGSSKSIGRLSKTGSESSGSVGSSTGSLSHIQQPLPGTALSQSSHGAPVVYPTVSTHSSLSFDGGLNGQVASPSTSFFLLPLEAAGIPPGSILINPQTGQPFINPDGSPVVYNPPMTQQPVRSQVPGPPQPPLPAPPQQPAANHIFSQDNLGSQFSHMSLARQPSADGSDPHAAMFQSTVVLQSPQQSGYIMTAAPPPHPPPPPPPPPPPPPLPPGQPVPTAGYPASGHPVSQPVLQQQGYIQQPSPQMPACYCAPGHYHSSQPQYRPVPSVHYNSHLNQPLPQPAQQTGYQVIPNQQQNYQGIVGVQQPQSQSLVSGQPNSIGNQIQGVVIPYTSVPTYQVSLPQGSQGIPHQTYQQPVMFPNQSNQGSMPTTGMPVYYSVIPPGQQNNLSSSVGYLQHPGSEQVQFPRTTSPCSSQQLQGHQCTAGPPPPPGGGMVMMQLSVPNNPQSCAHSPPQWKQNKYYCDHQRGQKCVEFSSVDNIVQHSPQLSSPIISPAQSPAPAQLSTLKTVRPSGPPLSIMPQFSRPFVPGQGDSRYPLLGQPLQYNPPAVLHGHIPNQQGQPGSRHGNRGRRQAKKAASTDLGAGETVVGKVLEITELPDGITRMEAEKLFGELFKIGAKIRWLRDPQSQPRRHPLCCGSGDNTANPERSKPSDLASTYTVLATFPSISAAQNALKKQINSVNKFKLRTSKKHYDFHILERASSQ
UniProt L0R6Q1: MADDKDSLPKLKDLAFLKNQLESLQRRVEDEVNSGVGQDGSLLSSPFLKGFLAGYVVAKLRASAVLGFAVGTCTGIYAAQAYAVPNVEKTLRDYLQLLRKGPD
UniProt O95759: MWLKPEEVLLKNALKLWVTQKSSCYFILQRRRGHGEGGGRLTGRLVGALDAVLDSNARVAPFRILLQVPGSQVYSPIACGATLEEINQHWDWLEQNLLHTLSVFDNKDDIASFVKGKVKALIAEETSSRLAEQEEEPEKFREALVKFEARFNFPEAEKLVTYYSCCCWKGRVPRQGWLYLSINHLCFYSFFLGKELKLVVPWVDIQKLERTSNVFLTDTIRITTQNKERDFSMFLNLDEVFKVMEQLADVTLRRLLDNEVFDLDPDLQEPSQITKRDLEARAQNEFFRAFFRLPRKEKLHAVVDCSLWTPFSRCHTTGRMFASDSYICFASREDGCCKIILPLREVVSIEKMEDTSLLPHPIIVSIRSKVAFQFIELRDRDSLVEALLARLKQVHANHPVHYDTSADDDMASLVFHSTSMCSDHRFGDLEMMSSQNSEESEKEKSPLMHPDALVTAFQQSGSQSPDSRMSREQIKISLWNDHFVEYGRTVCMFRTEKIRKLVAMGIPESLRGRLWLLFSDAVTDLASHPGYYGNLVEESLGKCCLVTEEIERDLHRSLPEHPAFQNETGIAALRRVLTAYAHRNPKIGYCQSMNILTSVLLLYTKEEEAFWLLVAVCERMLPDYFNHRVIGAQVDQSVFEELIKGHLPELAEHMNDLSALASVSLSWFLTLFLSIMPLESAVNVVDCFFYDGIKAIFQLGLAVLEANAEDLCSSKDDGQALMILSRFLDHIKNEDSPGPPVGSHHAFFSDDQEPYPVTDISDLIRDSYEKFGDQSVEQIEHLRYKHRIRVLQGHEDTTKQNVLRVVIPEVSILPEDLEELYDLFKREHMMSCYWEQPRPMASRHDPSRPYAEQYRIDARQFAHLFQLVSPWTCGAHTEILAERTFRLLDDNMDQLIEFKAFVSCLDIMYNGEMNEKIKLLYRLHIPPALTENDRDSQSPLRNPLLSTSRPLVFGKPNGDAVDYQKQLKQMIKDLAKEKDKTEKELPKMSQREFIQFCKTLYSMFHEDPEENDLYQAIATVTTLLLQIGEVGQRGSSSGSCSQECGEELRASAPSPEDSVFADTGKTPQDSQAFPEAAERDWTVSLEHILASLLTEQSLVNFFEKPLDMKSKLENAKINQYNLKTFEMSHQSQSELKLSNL
UniProt O43314: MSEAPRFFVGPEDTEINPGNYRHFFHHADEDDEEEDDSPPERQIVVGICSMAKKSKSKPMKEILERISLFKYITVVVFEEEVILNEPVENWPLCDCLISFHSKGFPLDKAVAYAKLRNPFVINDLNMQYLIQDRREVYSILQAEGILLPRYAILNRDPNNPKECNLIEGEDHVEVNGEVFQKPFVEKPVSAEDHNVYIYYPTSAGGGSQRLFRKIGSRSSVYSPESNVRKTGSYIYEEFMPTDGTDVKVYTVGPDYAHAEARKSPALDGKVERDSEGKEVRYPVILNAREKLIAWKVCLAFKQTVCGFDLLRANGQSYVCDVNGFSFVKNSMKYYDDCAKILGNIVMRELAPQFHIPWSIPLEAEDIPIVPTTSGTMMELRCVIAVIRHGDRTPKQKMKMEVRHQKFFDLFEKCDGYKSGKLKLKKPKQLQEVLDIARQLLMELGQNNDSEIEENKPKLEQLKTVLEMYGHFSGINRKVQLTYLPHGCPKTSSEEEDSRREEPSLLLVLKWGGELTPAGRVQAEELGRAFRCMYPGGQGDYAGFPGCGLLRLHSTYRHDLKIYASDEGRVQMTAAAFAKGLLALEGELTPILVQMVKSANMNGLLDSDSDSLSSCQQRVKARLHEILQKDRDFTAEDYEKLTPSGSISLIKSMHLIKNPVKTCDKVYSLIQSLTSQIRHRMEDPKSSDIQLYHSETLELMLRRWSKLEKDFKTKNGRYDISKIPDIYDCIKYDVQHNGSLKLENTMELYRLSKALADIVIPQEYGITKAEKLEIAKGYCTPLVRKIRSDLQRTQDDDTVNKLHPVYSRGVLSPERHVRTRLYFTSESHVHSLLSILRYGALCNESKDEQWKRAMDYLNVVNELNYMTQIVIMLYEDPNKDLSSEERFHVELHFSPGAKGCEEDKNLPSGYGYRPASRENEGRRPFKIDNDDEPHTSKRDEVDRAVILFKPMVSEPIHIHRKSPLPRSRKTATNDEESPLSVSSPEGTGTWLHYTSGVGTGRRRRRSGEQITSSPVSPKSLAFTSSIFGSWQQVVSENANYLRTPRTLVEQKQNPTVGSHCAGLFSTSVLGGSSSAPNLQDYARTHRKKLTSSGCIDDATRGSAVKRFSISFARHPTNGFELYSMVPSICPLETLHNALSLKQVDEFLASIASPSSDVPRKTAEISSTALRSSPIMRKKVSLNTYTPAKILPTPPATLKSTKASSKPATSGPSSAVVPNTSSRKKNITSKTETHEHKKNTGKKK

Compound: Nc1ncnc2c1ncn2[C@@H]1O[C@H](COP(=O)(O)OP(=O)(O)OP(=O)(O)O)[C@@H](O)[C@H]1O [adenosine triphosphate]
Experiment: NP40-soluble protein abundance relative to vehicle (solubility fold change) (ratio); higher = more soluble protein in presence of ATP
In short: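 Jurkat crude lysate (Dounce-homogenised) was treated with eight concentrations from 0.1 to 10 mM for 10 min at room temperature, then 3 min at 37 °C. It was solubilised with 0.8% NP40 and benzonase (60 min, 4 °C) and ultracentrifuged, and the supernatant was TMT-labelled for LC-MS/MS. Intensities were vsn-normalised, and the value is the fold change against the NP40-processed vehicle per replicate, from three independent experiments.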

Target | NP40-soluble protein abundance (concentration: 1mM) | NP40-soluble protein abundance (concentration: 2mM) | NP40-soluble protein abundance (concentration: 4mM) | NP40-soluble protein abundance (concentration: 6mM) | NP40-soluble protein abundance (concentration: 8mM) | NP40-soluble protein abundance (concentration: 10mM)
K7EQT1 and related entries (UniProt Q9UM11) | 1.05 ± 0.076 | 1.04 ± 0.058 | 1.06 ± 0.12 | 1.02 ± 0.12 | 1.07 ± 0.11 | 1.12 ± 0.15
J3KPC8 and related entries (UniProt Q9Y2K2) | 1 ± 0.085 | 1.05 ± 0.1 | 1.08 ± 0.078 | 1.01 ± 0.076 | 1.03 ± 0.12 | 1.02 ± 0.11
H7C3H7 and related entries (UniProt Q12873) | 1.23 ± 0.028 | 1.23 ± 0.023 | 1.29 ± 0.02 | 1.34 ± 0.041 | 1.39 ± 0.048 | 1.4 ± 0.065
H0YCE2 and related entries (UniProt Q9BTT0) | 0.89 ± 0.091 | 0.93 ± 0.048 | 0.91 ± 0.016 | 0.95 ± 0.1 | 0.859 ± 0.013 | 0.816 ± 0.056
K7ER53 and related entries (UniProt O95644) | 1.1 ± 0.1 | 1.06 ± 0.079 | 1.03 ± 0.089 | 1.05 ± 0.17 | 1.02 ± 0.1 | 1.02 ± 0.1
K7EMX1 and related entries (UniProt Q8NBT2) | 0.947 ± 0.12 | 0.914 ± 0.092 | 0.909 ± 0.032 | 0.975 ± 0.054 | 0.93 ± 0.043 | 0.841 ± 0.077
J3QQ67 and related entries (UniProt Q07020) | 1.05 ± 0.12 | 0.995 ± 0.17 | 1.01 ± 0.2 | 0.909 ± 0.18 | 0.847 ± 0.16 | 1.04 ± 0.18
H0YD93 and related entries (UniProt Q8WXA3) | 0.98 ± 0.14 | 1.01 ± 0.092 | 1.02 ± 0.067 | 0.949 ± 0.15 | 0.948 ± 0.042 | 0.966 ± 0.11
K7ENQ8 and related entries (UniProt Q15438) | 1.017 ± 0.0027 | 0.987 ± 0.021 | 1.02 ± 0.053 | 0.981 ± 0.016 | 0.987 ± 0.026 | 0.969 ± 0.025
I3L3K5 and related entries (UniProt O95476) | 0.983 ± 0.12 | 1.01 ± 0.074 | 1.02 ± 0.1 | 1.01 ± 0.098 | 1.01 ± 0.14 | 0.957 ± 0.069
G8JL98 and related entries (UniProt Q13569) | 0.9947 ± 0.0047 | 1.03 ± 0.013 | 1 ± 0.046 | 1.01 ± 0.034 | 0.996 ± 0.04 | 1.04 ± 0.04
H0YEL0 and related entries (UniProt O14893) | 1.03 ± 0.051 | 1 ± 0.081 | 1.02 ± 0.058 | 1 ± 0.13 | 1.01 ± 0.099 | 1.03 ± 0.084
K7EM91 and related entries (UniProt O43291) | 0.922 ± 0.071 | 0.953 ± 0.1 | 0.986 ± 0.066 | 0.975 ± 0.082 | 0.931 ± 0.096 | 0.917 ± 0.12
H0YKW3 and related entries (UniProt Q9H079) | 0.987 ± 0.19 | 0.991 ± 0.17 | 0.961 ± 0.12 | 0.978 ± 0.2 | 1.05 ± 0.023 | 1.02 ± 0.027
M0QXA7 and related entries (UniProt O95785) | 0.981 ± 0.04 | 1.01 ± 0.05 | 0.997 ± 0.035 | 1.02 ± 0.037 | 0.988 ± 0.03 | 1.04 ± 0.025
H0Y860 and related entries (UniProt Q9P246) | 1.04 ± 0.067 | 1.05 ± 0.051 | 1.06 ± 0.093 | 1.09 ± 0.13 | 0.991 ± 0.08 | 1.03 ± 0.069
H3BNX8 and related entries (UniProt P20674) | 0.985 ± 0.023 | 0.977 ± 0.055 | 0.978 ± 0.038 | 0.994 ± 0.092 | 1.01 ± 0.04 | 0.946 ± 0.13
H3BUF6 and related entries (UniProt Q8WWM7) | 0.952 ± 0.059 | 0.97 ± 0.029 | 0.958 ± 0.045 | 1.04 ± 0.043 | 0.983 ± 0.023 | 0.9815 ± 0.0037
J3KQJ1 and related entries (UniProt Q8NBJ7) | 0.9379 ± 0.0089 | 0.957 ± 0.032 | 0.927 ± 0.025 | 0.97 ± 0.02 | 0.913 ± 0.054 | 0.912 ± 0.032
H0YIS7 and related entries (UniProt Q8IXM2+H0YIS7) | 0.84 ± 0.13 | 0.884 ± 0.13 | 0.837 ± 0.089 | 0.833 ± 0.19 | 0.77 ± 0.034 | 0.824 ± 0.14
H7C2F9 and related entries (UniProt Q15032) | 0.942 ± 0.11 | 0.924 ± 0.041 | 0.941 ± 0.047 | 0.937 ± 0.063 | 0.891 ± 0.056 | 0.91 ± 0.029
K7EP14 and related entries (UniProt P07992) | 0.996 ± 0.014 | 0.985 ± 0.028 | 0.929 ± 0.0094 | 0.936 ± 0.017 | 0.964 ± 0.023 | 0.912 ± 0.063
SLC35A4 (UniProt L0R6Q1) | 0.836 ± 0.08 | 0.839 ± 0.066 | 0.816 ± 0.082 | 0.847 ± 0.072 | 0.829 ± 0.051 | 0.779 ± 0.11
H7BZJ3 and related entries (UniProt P30101) | 0.869 ± 0.14 | 0.995 ± 0.054 | 0.855 ± 0.11 | 0.96 ± 0.11 | 0.963 ± 0.11 | 0.861 ± 0.086
H0Y659 and related entries (UniProt Q7Z6Z7) | 0.971 ± 0.01 | 0.967 ± 0.016 | 0.943 ± 0.012 | 0.938 ± 0.025 | 0.955 ± 0.032 | 0.949 ± 0.043
J3KQ40 and related entries (UniProt O95759) | 1.04 ± 0.13 | 0.903 ± 0.15 | 1.06 ± 0.2 | 0.984 ± 0.16 | 1.1 ± 0.26 | 1.12 ± 0.12
K7EJD2 and related entries (UniProt Q9Y5B0) | 1 ± 0.033 | 0.977 ± 0.023 | 0.971 ± 0.058 | 0.994 ± 0.048 | 0.957 ± 0.04 | 0.992 ± 0.035
H9KV77 and related entries (UniProt Q9NQ92) | 0.985 ± 0.22 | 0.893 ± 0.093 | 0.927 ± 0.13 | 0.845 ± 0.085 | 0.967 ± 0.087 | 0.886 ± 0.021
J3KNA0 and related entries (UniProt Q15070) | 0.948 ± 0.07 | 0.948 ± 0.057 | 0.962 ± 0.041 | 0.894 ± 0.052 | 0.99 ± 0.062 | 0.986 ± 0.088
H0Y9S9 and related entries (UniProt O43314) | 0.983 ± 0.018 | 0.992 ± 0.046 | 0.988 ± 0.036 | 0.978 ± 0.044 | 1 ± 0.045 | 0.984 ± 0.038

Two entries drawn at random from the list so far:
Target | NP40-soluble protein abundance (concentration: 1mM) | NP40-soluble protein abundance (concentration: 2mM) | NP40-soluble protein abundance (concentration: 4mM) | NP40-soluble protein abundance (concentration: 6mM) | NP40-soluble protein abundance (concentration: 8mM) | NP40-soluble protein abundance (concentration: 10mM)
K7EMX1 and related entries (UniProt Q8NBT2) | 0.947 ± 0.12 | 0.914 ± 0.092 | 0.909 ± 0.032 | 0.975 ± 0.054 | 0.93 ± 0.043 | 0.841 ± 0.077
M0QXA7 and related entries (UniProt O95785) | 0.981 ± 0.04 | 1.01 ± 0.05 | 0.997 ± 0.035 | 1.02 ± 0.037 | 0.988 ± 0.03 | 1.04 ± 0.025
